Hit rate of the full screen: of about 300,000 compounds, about 5,400 (1.8%) were called active. Inconclusive means that the source gave no clear call. Such entries were picked first, then a sample of the others. Calls follow the shape of the full dose curve; tested in HEK293 cells. Potencies beside an inconclusive call are fits to weak or partial responses and may not hold up.
Experiment: qHTS for inhibitors of binding or entry into cells for Marburg Virus
Settings: Marburg virus pseudotyped entry inhibition, cell reporter; series mostly up to 37.8 µM
Potency is read from the fitted curve at half-maximal effect.

SMILES | Potency
CC1CC(C)CN(CCCNC(=O)C2CCCN(c3nnc(N4CCCC4=O)s3)C2)C1 (configuration not stated) | inconclusive: 3.16 µM [activator, full curve, poor fit]
CCOC(=O)C1(Cc2cccc(OC)c2)CCCN(C(=O)CSC)C1 (configuration not stated) | inconclusive: 3.55 µM [activator, single point]
CCC1(c2cccc(Cl)c2)NC(=O)N(Cc2cc(C(=O)OC)c(C)o2)C1=O (configuration not stated) | inactive
CCC(C)(C)NC(=O)c1ccc(S(=O)(=O)N(C)c2ccccc2OC)cc1 | inactive
O=Cc1ccnc(-c2ccc(OC(=O)c3ccco3)cc2)n1 | inconclusive: 10 µM [inhibitor, partial curve, poor fit]
CCOc1ccc(CN(C)CC(=O)Nc2cccc3ccccc23)cc1OC | inconclusive: 35.5 µM [inhibitor, single point]
Cc1ccc(N(CC(=O)Nc2ccc(Br)c(C)c2)S(=O)(=O)c2c(C)[nH]c(=O)[nH]c2=O)cc1 | inactive
COc1ccc(/C=C2/CCCc3ccccc3C2=O)cc1 | inconclusive: 14.1 µM [inhibitor, single point]
Cn1c(=O)n(Cc2ccccc2)c(=O)c2c1nc1n2CCCN1Cc1ccccc1 | inconclusive: 5.01 µM [inhibitor, single point]
O=C(Nc1ccc(F)cc1)c1nn(-c2ccccc2)c(=O)cc1Cl | active: 7.08 µM
CC(C)C(=O)NC(=S)Nc1ccc(S(=O)(=O)N(C)Cc2ccccc2)cc1 | inconclusive: 35.5 µM [inhibitor, single point]
O=C(Nc1ccccc1)N1CCN2C(=O)c3ccccc3C12c1ccccc1 (configuration not stated) | inconclusive: 8.91 µM [inhibitor, partial curve]
O=c1[nH]c(-c2ccccc2)nc2sc(-c3ccccc3)cc12 | inconclusive: 6.31 µM [inhibitor, single point]
Cc1ccc(C(=O)NC(=S)Nc2ccc(CN3CCCCC3)cc2)c(C)c1 | inconclusive: 14.1 µM [inhibitor, partial curve, poor fit]
CCc1ccc(NC(=O)CSc2nc(N)c(NC(=O)c3ccc(F)c(F)c3)c(=O)[nH]2)cc1 | inactive
Cc1ccc(-c2noc(CCC(=O)NCCN3CCN(Cc4ccccc4)CC3)n2)cc1 | inconclusive: 10 µM [inhibitor, partial curve, poor fit]
C=C(C)C(=O)C=CC=Cc1ccccc1 | inactive
CN(CC(=O)Nc1ccc(F)c(F)c1F)C1CCCCC1 | inconclusive: 29.1 µM [inhibitor, partial curve, poor fit]
COc1cc(CNCCN2CCOCC2)ccc1OCc1ccccc1Cl | inconclusive: 12.6 µM [inhibitor, single point]
O=C(OCC1CC(c2ccccn2)=NO1)c1ccc(Br)cc1 (configuration not stated) | inactive
O=C(CN1CCCC1c1cccs1)N1CCN(S(=O)(=O)c2ccccc2)CC1 (configuration not stated) | inactive
CCN(C(=O)Cn1c(=O)oc2cc(S(=O)(=O)N3CCCC3)ccc21)c1cccc(C)c1 | inconclusive: 5.62 µM [activator, partial curve]
N=c1sccn1CC(=O)N1N=C(c2ccc(Cl)cc2)CC1c1ccco1 (configuration not stated) | inconclusive: 10 µM [inhibitor, partial curve, poor fit]
CC(NC(=O)c1cc(-c2ccc(Br)cc2)on1)c1ccccc1 (configuration not stated) | inconclusive: 5.8 µM [inhibitor, partial curve]

Look-ups from the entries so far:
Potency, `O=Cc1ccnc(-c2ccc(OC(=O)c3ccco3)cc2)n1` is entered as inconclusive: 10 µM [inhibitor, partial curve, poor fit]
Potency, `C=C(C)C(=O)C=CC=Cc1ccccc1` is entered as inactive
Potency, `COc1cc(CNCCN2CCOCC2)ccc1OCc1ccccc1Cl` is entered as inconclusive: 12.6 µM [inhibitor, single point]
Potency, `CCN(C(=O)Cn1c(=O)oc2cc(S(=O)(=O)N3CCCC3)ccc21)c1cccc(C)c1` is entered as inconclusive: 5.62 µM [activator, partial curve]
Potency, `COc1ccc(/C=C2/CCCc3ccccc3C2=O)cc1` is entered as inconclusive: 14.1 µM [inhibitor, single point]
Potency, `CCC1(c2cccc(Cl)c2)NC(=O)N(Cc2cc(C(=O)OC)c(C)o2)C1=O` (configuration not stated) is entered as inactive

Additional entries.

SMILES | Potency
COc1ccccc1C(=O)NNC(=O)C(=O)Nc1ccc(C)c(Cl)c1 | inconclusive: 5.01 µM [activator, partial curve]
Cc1n[nH]c(C)c1S(=O)(=O)N(CC(=O)NCc1ccccc1Cl)c1ccc(C(C)C)cc1 | inconclusive: 10 µM [inhibitor, partial curve, poor fit]
N#C/C(=C\Nc1ccc2cn[nH]c2c1)c1nc(-c2ccccc2)cs1 | inconclusive: 0.708 µM [inhibitor, partial curve, poor fit]
NC(=O)C1CCN(c2ccc(S(=O)(=O)N3CCCCC3)cc2[N+](=O)[O-])CC1 | inactive
COc1ccc2[nH]cc(C(=O)CNc3nc(C)cs3)c2c1 | inactive
COc1cccc([C@@H]2Oc3ccc(Br)cc3C(=O)[C@H]2OC(=O)N[C@H](C)C2CCCCC2)c1 | inactive
Clc1ccc(-c2cn3c(n2)CCC3)cc1 | inconclusive: 0.316 µM [activator, partial curve, poor fit]
CCOC(=O)c1c(C)c(C(=O)N2CCN(c3cccc(Cl)c3)CC2)c(C)n1C | inconclusive: 16.4 µM [inhibitor, partial curve, poor fit]
COc1ccc(COc2cc(-c3cccc(OC)c3)nc3ccc(NC(=O)c4ccccc4)cc23)cc1 | inactive
CC(C)c1ccc2c(c1)C1(NN=C(c3ccccc3)S1)C(=O)N2 (configuration not stated) | inconclusive: 17.8 µM [inhibitor, single point]
CC(=O)c1c(NC(=O)c2ccccc2)[nH]c(-c2ccccc2)nc1=S | inactive
Cc1cc(C)cc(NC(=O)CCn2ccnc2C)c1 | inconclusive: 0.1 µM [activator, full curve, poor fit]
CCSc1nc2sc3c(c2c(=O)n1C1CCCCC1)CCN(C)C3 | inactive
Cc1ccc(-c2ccc(S(=O)(=O)NCc3ccco3)cc2)cc1 | inconclusive: 0.562 µM [activator, full curve, poor fit]
Cc1ccc(OCC(=O)Nc2cccc(-c3nnc(-c4ccccc4)o3)c2)c(C)c1 | inactive
O=C(CCC(=O)Nc1nnc(C2CCCCC2)s1)NCc1cccs1 | inactive
O=C(Nc1ccc(Cl)c(Cl)c1)Nc1ccon1 | inconclusive: 6.31 µM [inhibitor, single point]
COC(=O)N(/C=C/c1ccc(OC)cc1)CCc1ccc(OC)c(OC)c1 | inactive
O=C1CC(c2ccccc2)CC2=C1C(c1ccccn1)Nc1ccccc1N2 (configuration not stated) | inactive
CC(=O)Oc1cccc(N2C(=O)C3C(C2=O)C2C=CC3C23CC3)c1 (configuration not stated) | inactive
O=C(Nc1ccccc1F)Nc1cccnc1Cl | inconclusive: 1.26 µM [activator, full curve]
CCN1CCN(c2ccc(S(=O)(=O)N3CCOCC3)cc2NC(=O)/C=C/c2ccc([N+](=O)[O-])cc2)CC1 | inconclusive: 35.5 µM [inhibitor, single point]
O=C(COC(=O)/C=C/c1ccc(Cl)cc1)Nc1ccc2c(c1)OCCO2 | inconclusive: 35.5 µM [activator, single point]
CCCC(=O)Nc1nc(-c2ccccc2)ns1 | inconclusive: 3.16 µM [activator, single point]

SMILES | Potency
O=[N+]([O-])c1cccnc1Sc1ccc(F)cc1 | inactive
Cn1cc(CCNC(=O)c2ccc3nc(Cc4ccccc4F)oc3c2)cn1 | inconclusive: 35.5 µM [inhibitor, single point]
Cc1cccc(C(=O)N[C@H](C(=O)NCc2cccs2)C(C)C)c1 | inactive
Cc1ccc2sc(N(CCCN(C)C)C(=O)CN3C(=O)c4ccccc4C3=O)nc2c1C | inconclusive: 22.4 µM [inhibitor, single point]
O=C(CCN1C(=O)c2ccc([N+](=O)[O-])cc2C1=O)Nc1ccccc1C(=O)O | inactive
Cc1ccsc1C(=O)NNC(=O)C1CCCCC1C(=O)O (configuration not stated) | inactive
CC(=O)N1CCc2c(sc(NC(=O)c3ccc(S(=O)(=O)N(C)C)cc3)c2C#N)C1 | inactive
COc1ccc(C(=O)N2CCn3c2nc2ccccc23)cc1 | inactive
CCS(=O)(=O)c1ccc2oc(SCC(=O)NCc3ccccc3)nc2c1 | inactive
COc1cccc(OC)c1C(=O)Nc1ccc(S(=O)(=O)Nc2cc(C)nc(C)n2)cc1 | inconclusive: 3.16 µM [inhibitor, single point]
O=C(CSc1n[nH]c(-c2ccncc2)n1)Nc1ccc(Cl)c(Cl)c1 | inconclusive: 11.2 µM [inhibitor, partial curve, poor fit]
Cc1ccc(C(=O)CC(=O)COc2ccc(Cl)cc2C)cc1 | inactive
COC(=O)CCCNC(=O)c1ccc2oc(CCCc3ccccc3)nc2c1 | inactive
O=C(CC(=O)N/N=C/c1c(F)cccc1Cl)NCc1ccccc1 | inconclusive: 35.5 µM [inhibitor, single point]
COc1ccc(C(=O)NC(=S)Nc2ccccc2F)cc1 | inconclusive: 22.4 µM [activator, single point]
Cc1ccnc(NC(=O)CCC(=O)c2cccs2)c1 | inconclusive: 6.31 µM [inhibitor, partial curve, poor fit]
CCN(CC)C(=O)Cn1c(SCCOc2ccc(Cl)cc2)nc2ccccc21 | inactive
Cc1nc(C/C(=N\N)c2ccc(O)cc2O)cs1 | inactive
CCOc1ccc(CN(C)C(=O)[C@H](Cc2ccccc2)NC(=O)OCc2ccccc2)cc1OC | active: 4.47 µM
Cc1ncoc1C(=O)N1CCc2c([nH]c3ccccc23)C1c1ccccc1F (configuration not stated) | inconclusive: 35.5 µM [inhibitor, single point]
Cc1ccc(S(=O)(=O)N(C)c2ccc(OC(=O)COc3ccccc3)cc2)cc1 | inconclusive: 1.41 µM [activator, partial curve, poor fit]
Cc1ccc(OCC(=O)Nc2ccc(F)cc2)c([N+](=O)[O-])n1 | inconclusive: 0.794 µM [activator, full curve, poor fit]
O=C(Nc1ccccc1)c1ccccc1NC(=O)c1ccccc1[N+](=O)[O-] | inconclusive: 0.708 µM [activator, single point]
CCCCN(C)C(=O)C1CCC(CNS(=O)(=O)c2ccc3c(c2)CC(C)N3C(C)=O)CC1 (configuration not stated) | inactive

From PubChem BioAssay AID540276 (National Center for Advancing Translational Sciences (NCATS), 2011)
